Reference: PubChem BioAssay AID493014 (National Center for Advancing Translational Sciences (NCATS), 2011)
The list shows a part of the results. These are further read-outs of the screen, such as a control signal, another cell line or another target. No call is given for them. Most of these compounds were active or inconclusive in the main read-out, so they are no random draw. Potencies come from curve fits of mixed quality, noted in brackets.

Assay: qHTS Assay to Find Inhibitors of Chronic Active B-Cell Receptor Signaling
Conditions: ABC-DLBCL IkBa-CBG/CBR reporter, luminescence ratio (green luciferase fused to IkBa over red control in TMD8 lymphoma cells), 4 h
Procedure, shortened: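 TMD8 ABC-DLBCL cells carrying doxycycline-inducible green luciferase fused to IkappaBalpha plus unfused red luciferase were exposed to compounds (up to 46 uM) for 4 hrs at 37C. Activity came from the overlap-corrected green/red luminescence ratio.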

[1] = measured here: CBR red luminescence, cell number
[2] = measured here: IkBa-CBG green luminescence

| Compound | AC50 [1] | AC50 [2] |
| --- | --- | --- |
| O=C(CSc1nncn1-c1cccnc1)N1CCOCC1 | 5.8 µM [rising, single point] | – |
| COc1ccc(CC(=O)NC(C)c2nnc(SCCC(=O)Nc3ccccc3)n2C)cc1 (configuration not stated) | 0.282 µM [falling, full curve, poor fit] | – |
| Cc1cccc(NC2=C(C#N)C(=O)NC3(CCCC3)S2)c1 | – | 25.1 µM [falling, partial curve, poor fit] |
| COC(=O)CCCC(=O)Nc1ccc(Cl)c(Cl)c1 | 6.51 µM [rising, partial curve, poor fit] | – |
| CCc1ccc(NC(=O)C2=CC=CN3CCS(=O)(=O)N=C23)cc1 | 13 µM [rising, partial curve] | – |
| CCOc1ccc2nc(SC3CC(=O)N(c4ccc(OC)cc4OC)C3=O)sc2c1 (configuration not stated) | 8.91 µM [rising, partial curve, poor fit] | 3.16 µM [falling, partial curve, poor fit] |
| O=C(/C=C/c1ccco1)Nc1nnc(-c2ccco2)s1 | 10 µM [falling, single point] | – |
| Cc1ccc(CNC(=O)[C@H]2C[C@@H]2[C@H](NP(=O)(c2ccccc2)c2ccccc2)c2ccccc2)o1 | 8.2 µM [falling, partial curve] | – |
| O=C1NC2(NN1c1ccccc1)C1CC3CC(C1)CC2C3 (configuration not stated) | 14.6 µM [rising, single point] | – |
| COc1cc(OC)cc(C(=O)N[C@H](C(=O)NCc2ccccc2)C(C)C)c1 | 11.2 µM [rising, single point] | – |
| c1ccc(Cn2nnc3c(N4CCc5ccccc5C4)ncnc32)cc1 | – | 11.2 µM [rising, partial curve, poor fit] |
| O=C(/C=C/c1ccccc1Cl)c1cccnc1 | 32.6 µM [rising, single point] | 29.1 µM [falling, partial curve, poor fit] |
| COc1cccc(C(=O)N2CCC(CCC(=O)Nc3cccc(C)c3)CC2)c1 | 1 µM [falling, full curve, poor fit] | – |
| Cc1ccccc1C(=O)N/N=C/c1ccsc1C | 13 µM [falling, partial curve, poor fit] | – |
| CC(C)C[C@@H](COc1ccccc1)N1CCN(Cc2ccccc2)CCC1=O | 12.6 µM [falling, single point] | – |
| CCc1nc2ccccc2c(C(=O)OCC(=O)NC(=O)c2cccn2C)c1C | 22.4 µM [falling, single point] | – |
| CC(=O)N1c2ccc(C)cc2C(c2ccccc2)CC1C (configuration not stated) | 12.6 µM [rising, partial curve, poor fit] | 10 µM [falling, partial curve] |
| CCOC(=O)N1CCN(/C=C(\C#N)c2nc3ccccc3s2)CC1 | 22.4 µM [falling, single point] | – |
| CCOC(=O)c1c(CN(C)C)oc2cc(CN(C)C)c(O)c(CSc3ccccc3)c12 | 11.2 µM [falling, partial curve, poor fit] | – |
| Cc1nc2ccc(NC(=S)NCc3ccccc3)cc2nc1C | 35.5 µM [falling, single point] | – |
| COc1ccc(C(=O)NC2=NCCS2)c(OC)c1 | 35.5 µM [falling, single point] | – |

| Compound | AC50 [1] | AC50 [2] |
| --- | --- | --- |
| COc1ccc(S(=O)(=O)Oc2ccc3ccccc3c2)cc1 | 1.3 µM [rising, partial curve, poor fit] | – |
| COc1ccc2cc(C(=O)C3CCCN(Cc4cnc(C)s4)C3)ccc2c1 (configuration not stated) | 7.94 µM [falling, partial curve] | – |
| O=S(=O)(Nc1ccc(O)c(Sc2nc3ccccc3s2)c1)c1cccc2ccccc12 | 29.1 µM [falling, single point] | – |
| Clc1cc(-c2ccc(/C=N/n3cnnc3)o2)ccc1Br | 7.08 µM [falling, full curve, poor fit] | – |
| COc1ccc(OCCOc2ccc(C)nc2[N+](=O)[O-])cc1 | 1.84 µM [rising, full curve] | – |
| Cc1cc(Oc2nc3c(C)cccn3c(=O)c2/C=C(\C#N)S(=O)(=O)c2ccccc2)ccc1Cl | 2.91 µM [falling, full curve] | – |
| CCn1nnc2cc(C(=O)Nc3cc(S(C)(=O)=O)ccc3Cl)ccc21 | 20 µM [rising, partial curve, poor fit] | – |
| COc1ccc(CCNC(=O)C(=O)NCCCN2CCOCC2)cc1 | 6.31 µM [falling, partial curve, poor fit] | – |
| C(=N\Nc1nc(-c2ccccc2)cs1)/c1ccco1 | 7.31 µM [falling, partial curve] | – |
| COc1cc(CNCCO)cc(Cl)c1OCc1ccccc1Cl | 22.4 µM [falling, single point] | – |
| O=c1[nH]c(O)c(/C=C2\C=Nc3ccccc32)[nH]1 | 20 µM [falling, single point] | – |
| O=[N+]([O-])c1ccc2[nH]ncc2c1 | 6.31 µM [rising, partial curve, poor fit] | – |
| CC(=O)c1ccc(NC(=O)c2ccc(C)c(Br)c2)cc1 | 3.98 µM [falling, full curve, poor fit] | – |
| O=C(/C=C/c1ccc2c(c1)OCO2)NCCSCc1cccc(Cl)c1 | 10 µM [falling, partial curve, poor fit] | – |
| Cc1nc(-c2cccc(Cl)c2)n[nH]1 | 2.82 µM [rising, full curve, poor fit] | – |
| CCOC(=O)c1cnc(Nc2nc3ccccc3o2)nc1CSC(=S)N1CCCCC1 | – | 1.84 µM [falling, partial curve, poor fit] |
| CC(C)c1c(C(=O)N/N=C/c2cccc(OCc3ccc(F)cc3)c2)nnn1-c1nonc1N | 0.1 µM [rising, full curve, poor fit] | – |
| Cc1ccc(C(=O)NNC(=O)c2nn(-c3ccc(F)cc3)ccc2=O)cc1 | 12.6 µM [rising, partial curve, poor fit] | – |
| OCC1(CC2CCCCO2)CCN(Cc2cccc(O)c2)CC1 (configuration not stated) | 22.4 µM [rising, single point] | – |
| Cc1ccc(C(=O)NNC(=O)c2ccc(-n3cncn3)c([N+](=O)[O-])c2)cc1 | 20.6 µM [falling, single point] | – |
| CCOC(=O)C1=C(N)Oc2cc(O)ccc2C1c1cccnc1 (configuration not stated) | 22.4 µM [falling, single point] | – |

Look-ups from the results shown:
AC50 [1] with CCn1nnc2cc(C(=O)Nc3cc(S(C)(=O)=O)ccc3Cl)ccc21 reads 20 µM [rising, partial curve, poor fit]
AC50 [1] with O=c1[nH]c(O)c(/C=C2\C=Nc3ccccc32)[nH]1 reads 20 µM [falling, single point]
AC50 [1] with C(=N\Nc1nc(-c2ccccc2)cs1)/c1ccco1 reads 7.31 µM [falling, partial curve]
AC50 [1] with CC(C)c1c(C(=O)N/N=C/c2cccc(OCc3ccc(F)cc3)c2)nnn1-c1nonc1N reads 0.1 µM [rising, full curve, poor fit]

Later entries

| Compound | AC50 [1] | AC50 [2] |
| --- | --- | --- |
| COCCNC(=O)c1ccc2c(c1)nc(C)n2-c1cccc(F)c1 | 0.631 µM [rising, partial curve, poor fit] | – |
| CC(NC(=O)CN(c1cccc(C(F)(F)F)c1)S(=O)(=O)c1ccc(Cl)c([N+](=O)[O-])c1)c1ccccc1 (configuration not stated) | 23.1 µM [falling, single point] | 20.6 µM [rising, partial curve, poor fit] |
| CCCCCCCCCCOC(=O)C[N+](C)(C)C/C=C(/C)Cl | 20.6 µM [falling, single point] | – |
| Cn1c(=O)n(CCc2ccccc2)c(=O)c2c1nc1n2CCCN1c1ccccc1 | 0.82 µM [falling, partial curve, poor fit] | – |
| Fc1cccc(Nc2ncnc3[nH]ncc23)c1 | 12.6 µM [falling, single point] | – |
| CC1CCN(C(=O)c2cc3nc(C4CC4)cc(C(F)(F)F)n3n2)CC1 | 29.1 µM [rising, single point] | – |
| C=CCn1c(SCC(=O)Nc2sc(C)c(C)c2C(=O)OCC)nnc1-c1sc(N)nc1C | 2.59 µM [falling, partial curve, poor fit] | – |
| Cc1cc(=O)n2[nH]c(-c3cccc(Cl)c3)cc2n1 | 35.5 µM [falling, single point] | – |
| O=C(CSc1nc2nccnc2c(=O)n1Cc1cccs1)Nc1ccccc1 | 10 µM [falling, partial curve] | – |
| Cc1cc(C)n(-c2ccc(C(=O)OCC(=O)Nc3ccc(Cl)cc3[N+](=O)[O-])cc2)n1 | 20.6 µM [rising, partial curve, poor fit] | – |
| Cc1ccc(S(=O)(=O)N(C)C[C@@H]2Oc3ccc(NC(=O)CCC(F)(F)F)cc3CC(=O)N([C@@H](C)CO)C[C@@H]2C)cc1 | 20.6 µM [rising, partial curve] | 23.1 µM [falling, partial curve] |
| CN(CC(=O)Nc1ccc(Cl)cc1)C(=O)CCc1c[nH]c2ccccc12 | 11.2 µM [falling, single point] | – |
| CCC1=NN(C(=O)c2ccc(Cl)cc2)C(O)(c2ccccc2)C1 (configuration not stated) | 17.8 µM [falling, partial curve, poor fit] | – |
| CN1CCN(CCc2nc3cc(NC(=O)c4ccco4)ccc3n2C)CC1 | 2.51 µM [falling, full curve, poor fit] | – |
| O=c1c2ccccc2oc2nc(C3CCCCC3)n(Cc3ccco3)c(=O)c12 | 10 µM [falling, partial curve, poor fit] | – |
| COc1cc(/C=C2\C(=N)N3N=C(S(C)(=O)=O)SC3=NC2=O)ccc1OCCOc1ccc(C)cc1 | 11.2 µM [rising, partial curve, poor fit] | – |
| COc1ccc(C(=O)Nc2ccccc2-c2nnn(CC(=O)N3CCOCC3)n2)cc1 | 35.5 µM [rising, single point] | – |
| O=C1c2ccccc2-c2nc3ccccc3cc21 | 1 µM [rising, full curve, poor fit] | – |
| O=C(OCc1cccs1)c1ccccc1NS(=O)(=O)c1ccc2c(c1)OCCO2 | 0.058 µM [falling, full curve, poor fit] | – |
| NS(=O)(=O)c1ccc(NC(=S)NCc2ccc(Cl)cc2)cc1 | 31.6 µM [falling, single point] | – |
